T/C and survivor count data for twelve molecules are collected here from PubChem BioAssay AID270 (DTP/NCI, 2004).

The experiment concerns BDF1 mice, s.c. Lewis lung carcinoma, T/C %. The experiment can be described thus: NCI In Vivo Anticancer Drug Screen. Data for tumor model Lewis Lung Carcinoma (subcutaneous) in B6D2F1 (BDF1) mice. The method, boiled down:
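Antitumor effect in vivo is scored from survival or tumor burden, reported as treated relative to vehicle controls.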

The mark [1] stands for this setting: T/C endpoint: median survival time, dose: 50.0 mg/kg/injection, schedule: Q01DX009 (ip), vehicle: saline, higher T/C = longer survival.
Setting [2] is: T/C endpoint: median survival time, dose: 200.0 mg/kg/injection, schedule: Q01DX009 (ip), vehicle: saline, higher T/C = longer survival.

SMILES strings stand for the structures. The list is a part of this screen's results and no random one: it is rich in T/C values a quarter to a half above the control, in often repeated tests (any T/C) and in doses without a T/C. Further doses and runs are listed elsewhere. T/C is the treated group as % of the vehicle group. Some T/C values are followed by the survivors on the day toxicity was checked, most often the fifth; without a count, all were alive then. Schedule codes are those of the source, taken here to give the interval after Q, in days (D) or hours (H), and the number of doses after X. Some doses have a count of surviving animals in place of a T/C: the source files T/C as zero there, which appears to mark a toxic dose or a test without result, not a measured value. Some survivor counts are full or nearly so, which does not show that the dose was tolerated: survival well below the control is almost never listed, so the zero probably covers shortened survival too. Counts of survivors are from the toxicity check (mostly the fifth day) where no day follows; animals may have died later. Some entries hold several experiments; their values stand side by side, smallest first. Some molecules as drawn cover several salts, stereoisomers or complexes of the source; a dose is that of the sample tested. For survival time, the PubChem record calls one and a half times the control and up active, and a quarter to a half above the control has no call in these data; cut-offs in other NCI protocols can differ. Additions like (4×) count equal records among those shown.

Consider `COc1ccc2c3c(c4cc(OC)c(OC)cc4c2c1)C[C@H]1CCCCN1C3`, for which, where the note is “T/C endpoint: mean tumor weight, dose: 0.5 mg/kg/injection, schedule: Q01DX011 (ip), vehicle: other, evaluated on day 12, higher T/C = larger tumour”, the T/C was 129 % of control [9 of 10 alive]. In addition, the survivor count is, setting by setting: (T/C endpoint: mean tumor weight, dose: 1.0 mg/kg/injection, schedule: Q01DX011 (ip), vehicle: other, higher T/C = larger tumour) 2 of 6; (T/C endpoint: mean tumor weight, dose: 2.0 mg/kg/injection, schedule: Q01DX011 (ip), vehicle: other, higher T/C = larger tumour) 0 of 6.
As for `CN1C2CCC1CC(OC(=O)C(CO)c1ccccc1)C2` (stereo unspecified), the T/C (T/C endpoint: mean tumor weight, dose: 25.0 mg/kg/injection, schedule: Q01DX011 (ip), vehicle: saline, evaluated on day 12, higher T/C = larger tumour) is 134 % of control [5 of 6 alive].
With `CC1CN1P(=O)(N1CC1C)N1CC1C` (stereo unspecified), under setting [1], the survivor count was 9 of 10.
Regarding `CC1=C(/C=C/C(C)=C/C=C/C(C)=C/C(=O)O)C(C)(C)CCC1`, the T/C by setting is: (T/C endpoint: median survival time, dose: 1.0 mg/kg/injection, schedule: Q01DX005 (ip), vehicle: saline with Tween-80, evaluated on day 60, higher T/C = longer survival) 95, 101, 105 % of control; (T/C endpoint: median survival time, dose: 1.0 mg/kg/injection, schedule: Q01DX005 (ip), vehicle: saline with Tween-80, evaluated on day 65, higher T/C = longer survival) 121 % of control; (T/C endpoint: median survival time, dose: 2.0 mg/kg/injection, schedule: Q01DX005 (ip), vehicle: saline with Tween-80, evaluated on day 60, higher T/C = longer survival) 93, 105, 106 % of control [9 of 10 alive]; (T/C endpoint: median survival time, dose: 2.0 mg/kg/injection, schedule: Q01DX005 (ip), vehicle: saline with Tween-80, evaluated on day 65, higher T/C = longer survival) 92 % of control; (T/C endpoint: median survival time, dose: 4.0 mg/kg/injection, schedule: Q01DX005 (ip), vehicle: saline with Tween-80, evaluated on day 60, higher T/C = longer survival) 91, 107, 110 % of control; (T/C endpoint: median survival time, dose: 4.0 mg/kg/injection, schedule: Q01DX005 (ip), vehicle: saline with Tween-80, evaluated on day 65, higher T/C = longer survival) 103 % of control. Moreover, the T/C by setting is: (T/C endpoint: median survival time, dose: 8.0 mg/kg/injection, schedule: Q01DX005 (ip), vehicle: saline with Tween-80, evaluated on day 60, higher T/C = longer survival) 95 and 107 % of control (2×); (T/C endpoint: median survival time, dose: 8.0 mg/kg/injection, schedule: Q01DX005 (ip), vehicle: saline with Tween-80, evaluated on day 65, higher T/C = longer survival) 108 % of control; (T/C endpoint: median survival time, dose: 16.0 mg/kg/injection, schedule: Q01DX005 (ip), vehicle: saline with Tween-80, evaluated on day 60, higher T/C = longer survival) 103 (2×) and 118 % of control; (T/C endpoint: median survival time, dose: 16.0 mg/kg/injection, schedule: Q01DX005 (ip), vehicle: saline with Tween-80, evaluated on day 65, higher T/C = longer survival) 93 % of control; (T/C endpoint: median survival time, dose: 32.0 mg/kg/injection, schedule: Q01DX005 (ip), vehicle: saline with Tween-80, evaluated on day 60, higher T/C = longer survival) 104, 106 [9 of 10 alive], 110, 150 % of control; (T/C endpoint: median survival time, dose: 32.0 mg/kg/injection, schedule: Q01DX005 (ip), vehicle: saline with Tween-80, evaluated on day 65, higher T/C = longer survival) 104 % of control. Moreover, the T/C is, setting by setting: (T/C endpoint: median survival time, dose: 64.0 mg/kg/injection, schedule: Q01DX005 (ip), vehicle: saline with Tween-80, evaluated on day 60, higher T/C = longer survival) 97, 99, 102, 145 % of control [9 of 10 alive]; (T/C endpoint: median survival time, dose: 64.0 mg/kg/injection, schedule: Q01DX005 (ip), vehicle: saline with Tween-80, evaluated on day 65, higher T/C = longer survival) 93 % of control; (T/C endpoint: median survival time, dose: 128.0 mg/kg/injection, schedule: Q01DX005 (ip), vehicle: saline with Tween-80, evaluated on day 60, higher T/C = longer survival) 107 and 110 % of control; (T/C endpoint: median survival time, dose: 128.0 mg/kg/injection, schedule: Q01DX005 (ip), vehicle: saline with Tween-80, evaluated on day 65, higher T/C = longer survival) 118 % of control. The survivor count (T/C endpoint: median survival time, dose: 3.12 mg/kg/injection, schedule: Q01DX005 (ip), vehicle: saline with Tween-80, higher T/C = longer survival) is 10 of 10; the survivor count (T/C endpoint: median survival time, dose: 4.0 mg/kg/injection, schedule: Q01DX009 (ip), vehicle: saline with Tween-80, higher T/C = longer survival) is recorded as 10 of 10; the survivor count (T/C endpoint: median survival time, dose: 12.5 mg/kg/injection, schedule: Q01DX005 (ip), vehicle: saline with Tween-80, higher T/C = longer survival) is listed as 10 of 10; the survivor count (T/C endpoint: median survival time, dose: 25.0 mg/kg/injection, schedule: Q01DX005 (ip), vehicle: saline with Tween-80, higher T/C = longer survival) was 10 of 10; the survivor count (T/C endpoint: median survival time, dose: 50.0 mg/kg/injection, schedule: Q01DX005 (ip), vehicle: saline with Tween-80, higher T/C = longer survival) was 10 of 10; the survivor count (T/C endpoint: median survival time, dose: 64.0 mg/kg/injection, schedule: Q01DX009 (ip), vehicle: saline with Tween-80, higher T/C = longer survival) is recorded as 10 of 10. In addition, the survivor count is, setting by setting: (T/C endpoint: median survival time, dose: 100.0 mg/kg/injection, schedule: Q01DX005 (ip), vehicle: saline with Tween-80, higher T/C = longer survival) 10 of 10; (T/C endpoint: median survival time, dose: 128.0 mg/kg/injection, schedule: Q01DX005 (ip), vehicle: saline with Tween-80, higher T/C = longer survival) 7 of 10 and 10 of 10; (T/C endpoint: median survival time, dose: 128.0 mg/kg/injection, schedule: Q01DX009 (ip), vehicle: saline with Tween-80, higher T/C = longer survival) 10 of 10.
With `O=c1[nH]c(=O)n(C2CC(O)C(CO)O2)cc1F` (stereo unspecified), the survivor count reads like this: (T/C endpoint: mean tumor weight, dose: 160.0 mg/kg/injection, schedule: Q01DX011 (ip), vehicle: other, higher T/C = larger tumour) 2 of 10; (T/C endpoint: mean tumor weight, dose: 180.0 mg/kg/injection, schedule: Q01DX011 (ip), vehicle: saline, higher T/C = larger tumour) 2 of 10; (T/C endpoint: mean tumor weight, dose: 320.0 mg/kg/injection, schedule: Q01DX011 (ip), vehicle: saline, higher T/C = larger tumour) 0 of 6; (T/C endpoint: median survival time, dose: 25.0 mg/kg/injection, schedule: Q01DX009 (ip), vehicle: saline with Tween-80, higher T/C = longer survival) 10 of 10; (T/C endpoint: median survival time, dose: 200.0 mg/kg/injection, schedule: Q01DX009 (ip), vehicle: saline with Tween-80, higher T/C = longer survival) 10 of 10; under setting [2], 10 of 10. Moreover, the T/C runs as follows: under setting [1], 135 % of control; (T/C endpoint: median survival time, dose: 54.0 mg/kg/injection, schedule: Q01DX011 (ip), vehicle: saline, higher T/C = longer survival) 126 % of control [8 of 9 alive]; (T/C endpoint: median survival time, dose: 100.0 mg/kg/injection, schedule: Q01DX009 (ip), vehicle: saline, higher T/C = longer survival) 136 % of control; under setting [2], 133 % of control.
`COC1C(OC(=O)/C=C/C=C/C=C/C=C/C(=O)O)CCC2(CO2)C1C1(C)OC1CC=C(C)C` (stereo unspecified): the survivor count (T/C endpoint: mean tumor weight, dose: 100.0 mg/kg/injection, schedule: Q01DX011 (ip), vehicle: saline, higher T/C = larger tumour) is 2 of 7; the survivor count (T/C endpoint: mean tumor weight, dose: 200.0 mg/kg/injection, schedule: Q01DX011 (ip), vehicle: saline, higher T/C = larger tumour) was 0 of 7; the survivor count (T/C endpoint: mean tumor weight, dose: 400.0 mg/kg/injection, schedule: Q01DX011 (ip), vehicle: saline, higher T/C = larger tumour) is 0 of 7.
As to `COc1ccc(CC2C(=O)NC(C)C(=O)N(C)C3Cc4ccc(cc4)Oc4cc(ccc4O)CC(C(=O)NC(C)C(=O)NC(C)C(=O)N2C)N(C)C3=O)cc1` (stereo unspecified), the T/C by setting is: (T/C endpoint: median survival time, dose: 0.25 mg/kg/injection, schedule: Q01DX009 (ip), vehicle: saline, higher T/C = longer survival) 128 % of control; (T/C endpoint: median survival time, dose: 0.5 mg/kg/injection, schedule: Q01DX009 (ip), vehicle: saline, higher T/C = longer survival) 126 % of control.
For the molecule `C=C(C)C12CC(COC(=O)c3ccccc3)C34OC5(OC1C3C1OC1(CO)C(O)C1(O)C(OC(=O)c3ccccc3)C(C)C(C(C)CCCCCCC5O)C14)O2` (stereo unspecified), the survivor count (T/C endpoint: median survival time, dose: 15.0 micrograms/kg/injection, schedule: Q01DX009 (ip), vehicle: saline, higher T/C = longer survival) is 8 of 10.
For the molecule `Oc1ccc(O)c(/C=N/NC(=S)NC2CC3CC2C2C=CCC32)c1` (stereo unspecified), the survivor count (T/C endpoint: median survival time, dose: 12.5 mg/kg/injection, schedule: Q01DX009 (ip), vehicle: olive oil, sesame oil, peanut oil, higher T/C = longer survival) was 10 of 10; the survivor count (T/C endpoint: median survival time, dose: 100.0 mg/kg/injection, schedule: Q01DX009 (ip), vehicle: olive oil, sesame oil, peanut oil, higher T/C = longer survival) was 9 of 10; the survivor count (T/C endpoint: median survival time, dose: 200.0 mg/kg/injection, schedule: Q01DX009 (ip), vehicle: olive oil, sesame oil, peanut oil, higher T/C = longer survival) was 10 of 10; the survivor count (T/C endpoint: median survival time, dose: 400.0 mg/kg/injection, schedule: Q01DX009 (ip), vehicle: olive oil, sesame oil, peanut oil, higher T/C = longer survival) is on record as 3 of 10.
Take `O=C1C2CCCCC2C(=O)N1c1nccs1` (stereo unspecified): the survivor count (T/C endpoint: mean tumor weight, dose: 400.0 mg/kg/injection, schedule: Q01DX011 (ip), vehicle: carboxymethylcellulose (CMC), higher T/C = larger tumour) is reported as 2 of 6.
As to `CCC(=O)O[C@H]1CC[C@H]2[C@@H]3CCC4=CC(=O)CC[C@]4(C)[C@H]3CC[C@]12C`, the survivor count (T/C endpoint: median survival time, dose: 640.0 mg/kg/injection, schedule: Q02DX009 (ip), vehicle: Klucel (hydroxypropylcellulose) (HPC), higher T/C = longer survival) is on record as 10 of 10.
Regarding `C[n+]1ccc(Nc2ccc(NC(=O)c3ccc(Nc4cc[n+](C)c5ccc(N)cc45)cc3N)cc2)cc1`, the survivor count (T/C endpoint: mean tumor weight, dose: 25.0 mg/kg/injection, schedule: Q01DX011 (ip), vehicle: saline, higher T/C = larger tumour) is given as 3 of 6; the survivor count (T/C endpoint: median survival time, dose: 25.0 mg/kg/injection, schedule: Q01DX009 (ip), vehicle: Klucel (hydroxypropylcellulose) (HPC), higher T/C = longer survival) is given as 10 of 10; the survivor count (T/C endpoint: median survival time, dose: 50.0 mg/kg/injection, schedule: Q01DX009 (ip), vehicle: Klucel (hydroxypropylcellulose) (HPC), higher T/C = longer survival) is 9 of 10. Where the note is “T/C endpoint: median survival time, dose: 6.25 mg/kg/injection, schedule: Q01DX009 (ip), vehicle: Klucel (hydroxypropylcellulose) (HPC), higher T/C = longer survival”, the T/C was 142 % of control.
